Drawing on article PMC8210386, this text covers binding for three substances.

By UniProt entry, the sequences of proteins in these tests, tags left out. Where a name states a change or a piece, a line headed by the entry shows the natural chain unless it says otherwise. Residues count along the entry.
UniProt O00206, residues 24-839: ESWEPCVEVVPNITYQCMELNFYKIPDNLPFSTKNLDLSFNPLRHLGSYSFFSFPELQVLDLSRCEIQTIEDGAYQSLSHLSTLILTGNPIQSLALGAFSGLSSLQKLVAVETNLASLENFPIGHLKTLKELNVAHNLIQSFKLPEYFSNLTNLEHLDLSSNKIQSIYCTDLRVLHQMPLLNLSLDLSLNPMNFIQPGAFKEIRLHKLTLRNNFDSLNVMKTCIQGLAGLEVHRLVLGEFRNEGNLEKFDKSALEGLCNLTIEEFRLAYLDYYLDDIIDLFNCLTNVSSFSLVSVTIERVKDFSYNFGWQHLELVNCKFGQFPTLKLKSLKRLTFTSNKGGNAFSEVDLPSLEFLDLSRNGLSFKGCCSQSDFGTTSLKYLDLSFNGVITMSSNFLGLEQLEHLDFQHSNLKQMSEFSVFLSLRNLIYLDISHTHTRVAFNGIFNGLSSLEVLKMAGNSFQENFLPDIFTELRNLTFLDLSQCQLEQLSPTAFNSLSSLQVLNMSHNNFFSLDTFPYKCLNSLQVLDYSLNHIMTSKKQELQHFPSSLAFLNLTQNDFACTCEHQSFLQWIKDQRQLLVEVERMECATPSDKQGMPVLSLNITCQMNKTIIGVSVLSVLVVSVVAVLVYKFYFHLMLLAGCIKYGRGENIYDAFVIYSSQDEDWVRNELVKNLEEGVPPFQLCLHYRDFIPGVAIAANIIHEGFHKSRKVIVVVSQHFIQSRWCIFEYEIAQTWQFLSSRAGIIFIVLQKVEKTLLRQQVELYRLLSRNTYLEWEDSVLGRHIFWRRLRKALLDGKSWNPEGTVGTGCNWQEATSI
UniProt P06748: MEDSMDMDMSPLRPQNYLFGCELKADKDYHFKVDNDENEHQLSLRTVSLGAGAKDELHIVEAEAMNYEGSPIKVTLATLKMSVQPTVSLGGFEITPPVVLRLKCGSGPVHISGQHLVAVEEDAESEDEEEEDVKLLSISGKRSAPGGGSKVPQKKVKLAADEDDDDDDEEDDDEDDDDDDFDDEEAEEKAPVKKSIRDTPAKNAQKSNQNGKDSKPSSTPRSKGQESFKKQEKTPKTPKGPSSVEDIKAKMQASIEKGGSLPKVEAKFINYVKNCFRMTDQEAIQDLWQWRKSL

No constants are given. Whether binding was seen depends on the method and setting. In cells and extracts the contact can be indirect. Some results given as binding are weak or reduced against the parent protein; the word gives no strength.

The target of test [1] is Toll-like receptor 4 (TLR4), endogenous in human cardiac mesenchymal progenitor cells (human (endogenous in hCmPCs)) (UniProt O00206). As to the kind of experiment: proximity ligation; DuoLink in situ PLA on NPM knocked-down (shNPM) recipient hCmPCs placed in conditioned media of ShScr or ShNPM secreting hCmPCs treated or not with 50 mJ/cm^2 UV for 4h; not permeabilised.
Test [2] shares this target. As to the kind of experiment: proximity ligation; DuoLink in situ PLA with anti-NPM1 and anti-TLR4 on serum-starved hCmPCs, fixed, not permeabilised, without added rNPM (endogenous NPM released into serum-free medium).
Test [3] shares this target. As to the kind of experiment: proximity ligation; DuoLink in situ PLA with anti-NPM1 and anti-TLR4 on serum-starved hCmPCs treated with rNPM (0.5 ug/ml) for 8h, fixed, not permeabilised; only the binder purified.
The target of test [4] is Nucleophosmin (NPM), endogenous in human cardiac mesenchymal progenitor cells (human (endogenous in hCmPCs)) (UniProt P06748). The test can be described thus: co-IP; hCmPC cell extracts immunoprecipitated overnight at 4C with NPM antibody (ab245326) and protein A/G agarose, rabbit IgG as control; Western blot with TLR4 antibody; lysis buffer 50 mM HEPES pH 7.5, 250 mM NaCl, 0.1% Tween 20.

For “Nucleophosmin (NPM), endogenous in human cardiac mesenchymal progenitor cells (from UniProt P06748-1 1-294)”, the binding result in test [1] and in test [2] was “binds” each time.

Consider “recombinant NPM (rNPM), Abcam Ab114194 (from UniProt P06748 1-294)”, for which, in test [3], the binding result was “binds”.

On to “Toll-like receptor 4 (TLR4), endogenous in human cardiac mesenchymal progenitor cells (from UniProt O00206 24-839)”, for which, in test [4], the binding entry is listed as “binds”.
